This is an account of results in paper PMC7819943, “Rice protein-binding microarrays: a tool to detect cis-acting elements near promoter regions in rice”.

The other results are listed elsewhere or left out.

The target in the test is T1, OsSMF1 (Oryza sativa, UniProt Q6ZLB0 1-436).
T1 sequence: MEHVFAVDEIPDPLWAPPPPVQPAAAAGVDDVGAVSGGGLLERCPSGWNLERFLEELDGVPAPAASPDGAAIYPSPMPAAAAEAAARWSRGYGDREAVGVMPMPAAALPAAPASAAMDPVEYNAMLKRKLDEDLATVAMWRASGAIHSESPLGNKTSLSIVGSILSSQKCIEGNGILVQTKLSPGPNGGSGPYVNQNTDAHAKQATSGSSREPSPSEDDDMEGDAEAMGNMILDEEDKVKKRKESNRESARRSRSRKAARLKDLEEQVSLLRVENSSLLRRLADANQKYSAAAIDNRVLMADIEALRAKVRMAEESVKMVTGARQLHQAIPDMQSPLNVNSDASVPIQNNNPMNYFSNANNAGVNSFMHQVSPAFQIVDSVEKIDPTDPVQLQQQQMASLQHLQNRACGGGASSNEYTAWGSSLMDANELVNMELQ
Put plainly: protein-binding microarray (RPBM); PBS, 2% BSA, 51.3 ng/ul salmon testes DNA, 50 uM zinc acetate, 200 nM TF, 25 C, 1 h; high values mean tight binding. To be noted: protein: recombinant; tags: N-terminal polyhistidine and DsRed monomer fusion (pET32a); chain copies: 2; label: CyDye5-dUTP incorporated in the synthesized complementary strand; 3' TTTTT single-stranded linker to array surface; dsDNA, one strand shown. Put shortly: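 The binding signal is fluorescence intensity per array feature (arbitrary units). Readings came from an Axon 4000B scanner after a washed, 2% BSA-blocked, double-stranded custom Agilent array had been incubated for 1 h at 25 °C with 200 nM protein and 50 µM zinc acetate. The protein was a Ni–NTA-purified transcription factor fused N-terminally to polyhistidine and DsRed, expressed in E. coli BL21-CodonPlus.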
Turning to “ACCTCTGTCGTCATACTTGATCGGTTGATCTGGCAATTTCCGGAGTCACCTAGTGCAG”, the binding signal was 4810 fluorescence intensity (a.u.).
Regarding “GATAATGAGAGGTTGAACACAATGACTCACCAACTCGAGGCGGAGTCACCTAGTGCAG”, the binding signal was 11900 fluorescence intensity (a.u.).
The value for “CCTCGCGCGGGCCGTCCGTTCCACGCGCCCATCCACTCACCGGAGTCACCTAGTGCAG” was 28400 fluorescence intensity (a.u.).
With “TACTAGTTCAACATTCGATTTGACATGGCTTAATCCCTGTCGGAGTCACCTAGTGCAG”, the binding signal was 3480 fluorescence intensity (a.u.).
The value for “TACGCAAAATAATGTGTTCTACACTAGGATGTCTGAGTTTCGGAGTCACCTAGTGCAG” was 19500 fluorescence intensity (a.u.); that for “CGCGCCGAGCGGGTCCGCTTGGTGGAGGACGACGTGGAGGCGGAGTCACCTAGTGCAG” was 4920 fluorescence intensity (a.u.); that for “TCGATGACACGTGGGGCCAGAAACCCTCGTGGTCCATACGCGGAGTCACCTAGTGCAG” was 12600 fluorescence intensity (a.u.).
The value for “CGCAGCCACGTGCATTCTTACGTACTCATCGGCGCATCGGCGGAGTCACCTAGTGCAG” was 8170 fluorescence intensity (a.u.); that for “GATCCAGATTACTGTGATGTTTTAATCTCCACTATAAACTCGGAGTCACCTAGTGCAG” was 3220 fluorescence intensity (a.u.).
The value for “GAGATGGTACCGTGCCACGACGTCGTCCCGTCCCACCTCGCGGAGTCACCTAGTGCAG” was 4680 fluorescence intensity (a.u.); that for “GTGGCCACTTGCATCAGCCGGCCATGAGTGGAGGGGTAAGCGGAGTCACCTAGTGCAG” was 49700 fluorescence intensity (a.u.); that for “GATCAGTGCTTGGACGCATCAATAATAAGTGACAATTCTACGGAGTCACCTAGTGCAG” was 4960 fluorescence intensity (a.u.).
Regarding “TCGTCAAGCTGCTCAGCGTCCGCCGCGTCAGCTCGTTCCACGGAGTCACCTAGTGCAG”, the binding signal was 12500 fluorescence intensity (a.u.).
Consider “GGCGCCGGCGGCCGCCACGCGTCCCGCGTCGCGCTGTCCACGGAGTCACCTAGTGCAG”, for which the binding signal was 4190 fluorescence intensity (a.u.).
The same measure for “TTCTACTATGTCATTCTAGTACTATATAAAACTACTATGCCGGAGTCACCTAGTGCAG”: 3690 fluorescence intensity (a.u.); for “GGAGAATAACACATGCCAACGTGGTTGAATGTGCAGAGGTCGGAGTCACCTAGTGCAG”: 5980 fluorescence intensity (a.u.); for “GGAAGTTCAGAAAACGTTTCATATGCATGCCATTATCTCTCGGAGTCACCTAGTGCAG”: 12600 fluorescence intensity (a.u.).
The same measure for “TTTAGGGGATAGGTTAGTCCACTGCACAAGCAACGTGTCGCGGAGTCACCTAGTGCAG”: 3530 fluorescence intensity (a.u.).
The same measure for “GGAAAGCCGAGCACCGAACCGAGTCACCGACTCGCCTCGCCGGAGTCACCTAGTGCAG”: 3230 fluorescence intensity (a.u.); for “CGTCGCATTGCCACCAGCGCATGACGCCATGTCGTCGCATCGGAGTCACCTAGTGCAG”: 7930 fluorescence intensity (a.u.).
As for “CTAATTTAGAACTGGATGTGACACATTCTATTACTATCCCCGGAGTCACCTAGTGCAG”, the binding signal was 4800 fluorescence intensity (a.u.).
The value for “TTTCTTCTGTCAAATGACAGGGACTATAGTTATCTATCCTCGGAGTCACCTAGTGCAG” was 28300 fluorescence intensity (a.u.).
“AAGCTGTTTCACAAGGCAGTTTTGCATACGTGGCGGGCTGCGGAGTCACCTAGTGCAG”: the binding signal was 21500 fluorescence intensity (a.u.).
The same measure for “CCTCGCCGTCTGGCCCGCGGAGGCGTGGCCGCCTTCCACGCGGAGTCACCTAGTGCAG”: 7770 fluorescence intensity (a.u.).
“ACTATATATATACACTACGGTTGACAAAGACATCCCAACACGGAGTCACCTAGTGCAG”: the binding signal was 3240 fluorescence intensity (a.u.).
With “CGGCGGACAGGCGAGGCGGCGCGGCGCGGCGCGGGCGGGGCGGAGTCACCTAGTGCAG”, the binding signal was 4780 fluorescence intensity (a.u.).
The same measure for “GGTGTGTGTGTGTGTGGCATGGCAGGGCATGGATCCCTCCCGGAGTCACCTAGTGCAG”: 5270 fluorescence intensity (a.u.); for “CCTTTTCAATGTTCTTGTCATCACTGCTCGTGTCACCCGTCGGAGTCACCTAGTGCAG”: 5650 fluorescence intensity (a.u.).
The same measure for “GGCAGCCCGACCTACGCGTACCCACGTATTCCCCACCTTACGGAGTCACCTAGTGCAG”: 7360 fluorescence intensity (a.u.).
The same measure for “TTGTTTGTTTTCCGTGAACATACGGACATACCCTTTGACACGGAGTCACCTAGTGCAG”: 3970 fluorescence intensity (a.u.); for “ATACATCACTTTATCAAATCCTGATGTAATCATTCTTCACCGGAGTCACCTAGTGCAG”: 4000 fluorescence intensity (a.u.).
Take “GATACCGGTTGGGTGACGTCGTTTAATGAAGATGAACGGTCGGAGTCACCTAGTGCAG”: the binding signal is 4460 fluorescence intensity (a.u.).
The value for “CATGCCATATATGTACATTATATCTACAATGTTCCATATGCGGAGTCACCTAGTGCAG” was 3620 fluorescence intensity (a.u.).
The same measure for “GTCCGTCGCGCGTCACCGCGTGCCTCGCCACGCCCACGCCCGGAGTCACCTAGTGCAG”: 5090 fluorescence intensity (a.u.); for “CTGCTACTGATTCTATGAGGTGGCATAGCATGGAAATCAGCGGAGTCACCTAGTGCAG”: 4820 fluorescence intensity (a.u.).
The same measure for “ACCTAAAGCAAACTTACTCCCACTCTTAGTGACACGGATCCGGAGTCACCTAGTGCAG”: 3640 fluorescence intensity (a.u.).
Regarding “CATTTATCTAGAAATAATTTACTCATTATTTCAACTGATCCGGAGTCACCTAGTGCAG”, the binding signal is 28500 fluorescence intensity (a.u.).
The same measure for “GCCGCTACCCTCCTCGTCGGTGTCGGGCTATTTATACACTCGGAGTCACCTAGTGCAG”: 4530 fluorescence intensity (a.u.).
The value for “ATCGAACGCAAGAAAGAACATGACACCTCATCCAACAGCTCGGAGTCACCTAGTGCAG” was 5710 fluorescence intensity (a.u.); that for “CCCTTCTCTGGAGACGCCACGCCCACGTTCCTCTCGTCTCCGGAGTCACCTAGTGCAG” was 3180 fluorescence intensity (a.u.).
The same measure for “GGTACGGTCGCTGAGGAGAGGCTGGCGTGGGCGGTGGAGCCGGAGTCACCTAGTGCAG”: 3190 fluorescence intensity (a.u.); for “GAAGAAGAAGCTCTAGATAGCTATATATCCCAGCTGCTGCCGGAGTCACCTAGTGCAG”: 27700 fluorescence intensity (a.u.).
